# Percent effect of library compounds

The values are deposited in ChEMBL (CHEMBL3988442, “University of Dundee, Small-Polar-MMV Screening Library” (2021)).

A: 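Whole-parasite assay of Trypanosoma brucei over 72 hours; the read-out is not stated. Tested at 30 µM. Direction is inferred from retests: higher values go with stronger inhibition. Values scatter widely below zero; nearly all retest evidence comes from the higher of the two concentrations used. About 64,000 compounds were tested under these conditions; 1.5% (about 940) showed 50% or more at least once.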
B: 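Assay of Toxoplasma gondii numbers, read through their beta-galactosidase reporter with a colour substrate. Compounds at 10 µM. The record gives no direction; the compounds picked for IC50 retests had high values, so higher reads as fewer parasites. Of about 67,000 compounds tested this way, about 260 (0.38%) reached 50% or more in at least one test.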

The filed quantity is “Percent Effect” (%).
The record does not define 0% and 100%; most values in the screen are far below 50% and negative numbers occur (in some assays of this library far below -100).
The compounds are a random part of those screened.

- CC(C)OCCOCc1cccc(NC(=O)NCc2ccncc2)c1 | A: 16.55%; B: -7.276%
- Cn1cc(N2CCC3(CCCN(Cc4ccc(F)cc4)C3)C2=O)cn1.O=C(O)C(F)(F)F (centres unmarked) | A: 66.19%; B: 5.235%
- Cc1noc(C)c1CNC(C)c1ccc(S(=O)(=O)N(C)C)cc1 (centres unmarked) | A: -9.193%; B: -1.536%
- O=C(O)C(F)(F)F.O=C(O)C(F)(F)F.c1ccc(OCc2n[nH]c3c2CN(CC2CC2)C3)nc1 | B: -13.78%
- CSc1ccccc1C(=O)NCc1cc2n(n1)CCCN(CC(C)C)C2 | A: -289.9%; B: 27.38%
- CC(C)OCc1noc(C2CCOC2)n1 (centres unmarked) | A: -4.783%; B: 13.76%
- CCOC1CCN(C(=O)c2csc(S(N)(=O)=O)c2)CC1 | A: -18.23%; B: 5.567%
- O=C(CC1Cn2ncnc2NC1=O)Nc1cccc(C(F)(F)F)c1 (centres unmarked) | B: -4.606%
- CC(C)(O)CCc1ccc(C(=O)N2CCN(CC(F)(F)F)CC2)cc1 | A: -23.2%; B: 4.851%
- [H][C@]12C(=O)N[C@H](Cc3c[nH]c4ccccc34)C(=O)N1CC[C@@H]2NC(C)=O | A: -6.33%; B: -5.391%
- Cc1ccc(=O)n(CC2(O)CCN(Cc3c(F)cccc3F)CC2)n1 | A: -10.6%; B: 16.86%
- Cc1cc2n(n1)CCN(c1nc(N(C)C)nc3c1CCNC3)C2 | A: -9.873%; B: -3.956%
- Fc1ccc(C2(NCc3noc(C4CC4)n3)CCC2)cc1 | A: -33.57%; B: -15.67%
- c1ccc(CCN2CCN(c3ncnc4[nH]ccc34)CC2)cc1 | A: -2.602%; B: 5.046%
- CC(=O)N1CCC(N2CCOC[C@H]2c2nc(-c3cccnc3)c[nH]2)CC1 | A: -45.18%; B: -4.823%
- Cc1ccsc1S(=O)(=O)N1CCc2c(c(C(=O)O)nn2CC2CC2)C1 | A: -28%; B: -7.015%
- COc1ccc2c(c1)CN(CC(=O)NC1CCCC1)CC2 | A: -13.39%; B: 1.914%
- Cc1ccc(CN(C)C(=O)Cn2nc(-c3ccc(F)cc3)oc2=O)cc1 | A: -15.48%; B: 11.77%
- O=C(O)C(F)(F)F.O=C(O)C(F)(F)F.O=C(O)C(F)(F)F.O=C(O)C(F)(F)F.c1ccc(CN2CCc3c(COCc4ccncc4)cncc3C2)nc1 | A: -62.04%; B: -9.561%
- [H][C@]12CNC[C@@]1(C(=O)N(C)Cc1cnccn1)CN(Cc1ccccc1)C2 | A: 9.972%; B: 6.454%
- [H][C@@]12CCN(C3CCCC3)C[C@@]1([H])[C@H](C(=O)NC1CC1)CCO2 | A: -2.577%; B: 12.73%
- COCCN1CCCN(C(=O)NC(C)Cn2cccn2)CC1 (centres unmarked) | A: -4.189%; B: -6.229%
- CN(CC(C)(C)O)C1CCCN(Cc2noc(C3CC3)n2)C1 (centres unmarked) | A: -37.52%; B: 5.6%
- [H][C@]12CCN(C(=O)c3ccc[nH]3)[C@@]1([H])CCC(=O)N2CCN1CCOCC1 | A: -30.22%; B: 8.358%
- COc1cc(N2CCC(c3nccn3Cc3cccnc3)CC2)ncn1 | A: -29.09%; B: 9.273%
- [H][C@@]12CC[C@H](Oc3ccccc3)[C@]1([H])CN(C(=O)Cn1ccnc1)C2 | A: 3.718%; B: -2.242%
- CN(C)CCNc1cc(-c2ncccn2)c2cc[nH]c2n1 | A: -17.28%; B: -45.47%
- COCC1CN(C(=O)Nc2cc(-n3cccc3)ccc2F)CCO1 (centres unmarked) | A: 4.997%; B: 0.4813%
- Cc1n[nH]cc1C(=O)NCc1cccnc1N1CCc2ccccc2C1 | A: 5.119%; B: 1.124%

Once more, the final 2:

compound	A	B
COCC1CN(C(=O)Nc2cc(-n3cccc3)ccc2F)CCO1 (centres unmarked)	4.997	0.4813
Cc1n[nH]cc1C(=O)NCc1cccnc1N1CCc2ccccc2C1	5.119	1.124